Laboratory results reported in publication PMC10093141.
No constants are given. Whether binding was seen depends on the method and setting. In cells and extracts the contact can be indirect. Some binding calls cover weakened binding; strength is not graded here.

Amino acid sequences for entries named in this document (tags omitted).
UniProt P46937: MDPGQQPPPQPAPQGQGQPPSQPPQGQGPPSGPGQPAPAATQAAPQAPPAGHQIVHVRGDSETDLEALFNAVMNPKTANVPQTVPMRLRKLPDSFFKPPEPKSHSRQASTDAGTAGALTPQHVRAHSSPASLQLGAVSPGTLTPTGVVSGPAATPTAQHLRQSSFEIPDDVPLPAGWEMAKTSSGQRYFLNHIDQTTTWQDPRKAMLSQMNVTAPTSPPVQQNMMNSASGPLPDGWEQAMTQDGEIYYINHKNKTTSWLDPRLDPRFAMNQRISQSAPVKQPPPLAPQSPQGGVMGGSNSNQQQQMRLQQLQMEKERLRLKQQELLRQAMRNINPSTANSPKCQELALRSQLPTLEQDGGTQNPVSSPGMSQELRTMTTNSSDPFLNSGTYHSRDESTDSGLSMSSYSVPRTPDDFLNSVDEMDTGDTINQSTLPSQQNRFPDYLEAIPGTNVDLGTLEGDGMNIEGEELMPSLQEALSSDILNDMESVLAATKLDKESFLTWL

Biological target: Yes1 Associated Transcriptional Regulator (YAP) (human (endogenous in A549 and Calu-1)) (UniProt P46937)
Test: FRET or BRET; FRET by flow cytometry on fixed, permeabilized A549 and Calu-1 cells, untreated or treated 24 h with CytoMix; YAP labeled by antibodies with PE (donor, FL2), TBC1D2 with Cy5 (acceptor, FL4), FRET in FL3; FRET efficiency by the Riemann algorithm

B1: TBC1D2 (protein, UniProt Q9BYX2 1-928)
chain: MEGAGENAPESSSSAPGSEESARDPQVPPPEEESGDCARSLEAVPKKLCGYLSKFGGKGPIRGWKSRWFFYDERKCQLYYSRTAQDANPLDSIDLSSAVFDCKADAEEGIFEIKTPSRVITLKAATKQAMLYWLQQLQMKRWEFHNSPPAPPATPDAALAGNGPVLHLELGQEEAELEEFLCPVKTPPGLVGVAAALQPFPALQNISLKHLGTEIQNTMHNIRGNKQAQGTGHEPPGEDSPQSGEPQREEQPLASDASTPGREPEDSPKPAPKPSLTISFAQKAKRQNNTFPFFSEGITRNRTAQEKVAALEQQVLMLTKELKSQKELVKILHKALEAAQQEKRASSAYLAAAEDKDRLELVRHKVRQIAELGRRVEALEQERESLAHTASLREQQVQELQQHVQLLMDKNHAKQQVICKLSEKVTQDFTHPPDQSPLRPDAANRDFLSQQGKIEHLKDDMEAYRTQNCFLNSEIHQVTKIWRKVAEKEKALLTKCAYLQARNCQVESKYLAGLRRLQEALGDEASECSELLRQLVQEALQWEAGEASSDSIELSPISKYDEYGFLTVPDYEVEDLKLLAKIQALESRSHHLLGLEAVDRPLRERWAALGDLVPSAELKQLLRAGVPREHRPRVWRWLVHLRVQHLHTPGCYQELLSRGQAREHPAARQIELDLNRTFPNNKHFTCPTSSFPDKLRRVLLAFSWQNPTIGYCQGLNRLAAIALLVLEEEESAFWCLVAIVETIMPADYYCNTLTASQVDQRVLQDLLSEKLPRLMAHLGQHHVDLSLVTFNWFLVVFADSLISNILLRVWDAFLYEGTKVVFRYALAIFKYNEKEILRLQNGLEIYQYLRFFTKTISNSRKLMNIAFNDMNPFRMKQLRQLRMVHRERLEAELRELEQLKAEYLERRASRRRAVSEGCASEDEVEGEA
- binding: binds
